From the supplement of paper PMC9135407 come the findings set out here.

This assay has as its system primary human hepatic stellate cells (donor 1). The assay can be described thus: percent Bodipy-positive cells; higher = more lipid droplet accumulation. As to conditions: 48 h.
Where [1] appears, read: library stock concentration: 3.33 mM.
[2] abbreviates: library stock concentration: 10 mM.
Setting [3] is: library stock concentration: 1 mM.
[4] abbreviates: library stock concentration: 80 uM.
The mark [5] stands for this setting: library stock concentration: 400 uM.
The mark [6] stands for this setting: library stock concentration: 2 mM.

Several values for one entry are separate records, joined by “and”; a condition that tells them apart may be missing. Equal values may be shown once. Where a name gives a salt, the structure may show the parent alone. ± gives the standard deviation of the averaged measurements. The list shows a part of the results. Part of the spread comes from offsets between plates or batches.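 Assay uses culture-activated primary human stellate myofibroblasts; lipid droplet recovery indicates inactivation. Measured: proportion of Hoechst-counted cells over a plate-specific Bodipy cutoff, duplicate wells, DMSO and nortriptyline as per-plate negative and positive controls. A hit scores, control-normalized, above the plate's top-tenth-percentile nortriptyline wells or ranks among its three best wells. Final well concentrations not reported.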

As for `C=C[C@](C)(O)CC[C@@H]1[C@@]2(C)CCCC(C)(C)[C@@H]2CC[C@@]1(C)O` [Sclareol], the “percent Bodipy-positive cells” value came to 14.5 ± 12% under setting [1] and 63.9 ± 2% under setting [2].

Consider `COC1CCC(C(=O)c2ccc3nc4c(cc3c2)CCCO4)CC1` (stereo unspecified), for which the “percent Bodipy-positive cells” value under setting [2] was determined as 6.44 ± 3.4%. In the case of `O=C(O)[C@@H]1[C@H]2C[C@H]3c4[nH]c5ccccc5c4CCN3C[C@@H]2CC[C@@H]1O` [Yohimbinic acid monohydrate], the “percent Bodipy-positive cells” value is 25.7 ± 6.6%. In the case of `NC(=O)N/N=C/c1ccc(Oc2ccc(F)cc2)cc1`, the “percent Bodipy-positive cells” value under setting [2] amounted to 6.35 ± 0.39%. `C[C@]12CC[C@@H]3c4ccc(O)cc4C[C@@H](CCCCCCCCC[S+]([O-])CCCC(F)(F)C(F)(F)F)[C@H]3[C@@H]1CC[C@@H]2O` (stereo partly specified): the “percent Bodipy-positive cells” value under setting [2] is 9.65 ± 4.2%. With `C[C@]12CC[C@@H]3c4ccc(O)cc4C[C@@H](CCCCCCCCC[S+]([O-])CCCC(F)(F)C(F)(F)F)[C@H]3[C@@H]1CC[C@@H]2O` (stereo partly specified) [Fulvestrant], under setting [1], the “percent Bodipy-positive cells” value was 9.02 ± 1.1%. On to `COc1cc(CNC(=O)CCCC/C=C/C(C)C)ccc1O` [E-capsaicin], for which the “percent Bodipy-positive cells” value under setting [2] amounted to 14.3 ± 2.1%. Same read-out and setting: as for `COc1cc(CNC(=O)CCCC/C=C/C(C)C)ccc1O` [(E)-Capsaicin], the figure is 6.98 ± 2.8%.

Take `COc1cc(CNC(=O)CCCC/C=C/C(C)C)ccc1O` [Capsaicin]: the “percent Bodipy-positive cells” value is 6.98 ± 3.3%. Moreover, under setting [3], the “percent Bodipy-positive cells” value turned out to be 9.54 ± 1.2%. The “percent Bodipy-positive cells” value under setting [2] was determined as 13.4 ± 0.65%. Regarding `COc1cc(CNC(=O)CCCC/C=C/C(C)C)ccc1O` [E-Capsaicin], where the note is “library stock concentration: 16.4 mM”, the “percent Bodipy-positive cells” value was found to be 22.2 ± 2%. With `Clc1ccc(C2(c3ccc(-c4cn[nH]c4)cc3)CCNCC2)cc1`, the “percent Bodipy-positive cells” value runs as follows: under setting [4], 44 ± 1.6%; under setting [5], 64.7 ± 4.1%; under setting [2], 98.3 ± 2.4%.

Take `NC1(Cc2ccc(Cl)cc2)CCN(c2ncnc3[nH]ccc23)CC1`: the “percent Bodipy-positive cells” value under setting [1] is 60.5 ± 16%. For the molecule `O=C(O)CCC(C(=O)O)N1C(=O)c2ccccc2C1=O` [L-Glutamic acid, N-phthaloyl-], under setting [2], the “percent Bodipy-positive cells” value was 53.1 ± 2.8%.

As to `Cc1cc(C(C)Nc2ccccc2)c2nc(N3CCOCC3)cc(=O)n2c1` (stereo unspecified), the “percent Bodipy-positive cells” value was 11.3 ± 4.4% under setting [4]; 11.6% and 10.4% under setting [5]; 19% and 18.1% under setting [6]; 7.7 ± 2.4% under setting [1]. As for `Cc1cc(Nc2cc(N3CCN(C)CC3)nc(Sc3ccc(NC(=O)C4CC4)cc3)n2)n[nH]1` [Tozasertib (VX-680, MK-0457) (0.4 mM)], the “percent Bodipy-positive cells” value under setting [5] worked out at 16.5 ± 0.17%.

For the molecule `Cc1cc(Nc2cc(N3CCN(C)CC3)nc(Sc3ccc(NC(=O)C4CC4)cc3)n2)n[nH]1` [VX-680 (Tozasertib, MK-0457)], the “percent Bodipy-positive cells” value under setting [1] turned out to be 31.9 ± 0.98% and the “percent Bodipy-positive cells” value under setting [2] was 59.5 ± 8.2%. `Cc1cc(Nc2cc(N3CCN(C)CC3)nc(Sc3ccc(NC(=O)C4CC4)cc3)n2)n[nH]1` [Tozasertib (VX-680, MK-0457) (2 mM)]: the “percent Bodipy-positive cells” value under setting [6] was 40.8 ± 2.1%. On to `Cc1cc(Nc2cc(N3CCN(C)CC3)nc(Sc3ccc(NC(=O)C4CC4)cc3)n2)n[nH]1` [Tozasertib (VX-680, MK-0457) (10 mM)], for which the “percent Bodipy-positive cells” value under setting [2] worked out at 71.6 ± 6.8%.

For `Cc1cc(Nc2cc(N3CCN(C)CC3)nc(Sc3ccc(NC(=O)C4CC4)cc3)n2)n[nH]1`, the “percent Bodipy-positive cells” value runs as follows: under setting [4], 9.86 ± 0.4%; under setting [5], 16.8 ± 2%; under setting [6], 35.5 ± 4.1%; under setting [2], 58.9 ± 2.7%. Turning to `Clc1ccc2nsnc2c1NC1=NCCN1` [Tizanidine hydrochloride], the “percent Bodipy-positive cells” value under setting [2] is 18.8% and 10.4% and 24.3%. With `Clc1ccc2nsnc2c1NC1=NCCN1` [Tizanidine HCl], the “percent Bodipy-positive cells” value is, setting by setting: under setting [1], 7.29 ± 6.9%; (library stock concentration: 7.9 mM) 5.4 ± 0.33%; under setting [2], 36.2 ± 2.8%.

As for `Cc1cc2cc3c(C)cc(=O)oc3c(C)c2o1` [Trioxsalen], the “percent Bodipy-positive cells” value amounted to 8.61 ± 1.7%. Also, the “percent Bodipy-positive cells” value (library stock concentration: 8.8 mM) worked out at 20.2 ± 6.2%. Further, under setting [2], the “percent Bodipy-positive cells” value came out at 37.9 ± 16%. On to `CC(=O)Nc1c(I)cc(I)c(C(=O)O)c1I` [Acetriazoic acid], for which the “percent Bodipy-positive cells” value was 11.5 ± 0.33% (library stock concentration: 3.6 mM) and 32.5 ± 9.9% under setting [2]. Take `CC(C)OC(=O)CCC/C=C/C[C@H]1C(=O)C[C@@H](O)[C@@H]1/C=C/[C@@H](O)COc1cccc(C(F)(F)F)c1` [9-keto Fluprostenol isopropyl ester]: under setting [3], the “percent Bodipy-positive cells” value came to 17.7 ± 3.1%. With `CC(=O)Nc1nnc(S(N)(=O)=O)s1` [Acetazolamide], the “percent Bodipy-positive cells” value was 28.6 ± 5.8%. Also, the “percent Bodipy-positive cells” value (library stock concentration: 9 mM) amounted to 2.05 ± 0.11%. For the same molecule, under setting [2], the “percent Bodipy-positive cells” value was 11.5% and 34.7%.

For the molecule `CC(=O)Nc1nnc(S(N)(=O)=O)s1`, under setting [2], the “percent Bodipy-positive cells” value worked out at 31 ± 0.98%. Regarding `Nc1nc(OCc2cc(Br)cs2)c2[nH]cnc2n1` [Lomeguatrib], the “percent Bodipy-positive cells” value under setting [1] is 39.5 ± 2.4% and the “percent Bodipy-positive cells” value under setting [2] was found to be 50.89 ± 0.1%.

`CCCCOc1ccc(C(=O)Nc2ccc(F)cc2F)cc1`: the “percent Bodipy-positive cells” value is, setting by setting: under setting [1], 33.7 ± 9.4%; under setting [2], 42.1 ± 8%.

In the case of `CC(C)Oc1ccc2c(=O)c(-c3ccccc3)coc2c1`, the “percent Bodipy-positive cells” value under setting [2] came to 36.71 ± 0.33%.

`CC(C)Oc1ccc2c(=O)c(-c3ccccc3)coc2c1` [Ipriflavone (Osteofix)]: the “percent Bodipy-positive cells” value by setting is: under setting [1], 12.7 ± 1%; under setting [2], 24.1 ± 2.5%. Turning to `C[N+](C)(C)CC(O)CC(=O)[O-]` (stereo unspecified) [Carnitine hydrochloride], the “percent Bodipy-positive cells” value under setting [2] amounted to 20.2 ± 1.2%. Regarding `NC(N)=N[C@@H](CCC(=O)O)C(=O)O` [.alpha.-Guanidinoglutaric Acid], the “percent Bodipy-positive cells” value under setting [3] is 8.65 ± 2.4%. Regarding `NC(N)=N[C@@H](CCC(=O)O)C(=O)O` [alpha-Guanidinoglutaric acid], the “percent Bodipy-positive cells” value under setting [2] was 31.1 ± 6.5%. As to `N#C/C(=C1/SC[C@@H](c2ccc(Cl)cc2Cl)S1)n1ccnc1` [Luliconazole], the “percent Bodipy-positive cells” value worked out at 10.7 ± 1.3% under setting [1] and 28.7 ± 15% under setting [2]. Take `COc1cc(N2CCN(C)CC2)ccc1Nc1ncc2c(n1)N(C)c1ccccc1C(=O)N2C`: the “percent Bodipy-positive cells” value by setting is: under setting [4], 22 ± 0.98%; under setting [5], 22.4 ± 3.2%; under setting [6], 37.4 ± 5%; under setting [2], 72.7 ± 6.1%.
